The source of these data is patent publication US6403774B1, “Azoamidine compound” (Wako Pure Chemical Industries, Ltd., priority 2000, dated 2002).

This data set is described as follows: Polymerization of acrylamide in water at 70° C. with the compound as initiator; polymerization rate at each time.

Take “2,2′-azobis [Example 2, 2,2′-azobis [2-methyl-1-(N-pyrrolidinyl)iminopropane]]”: the “Rate of Polymerization (%)” value is, setting by setting: (Polymerization Time 0.5 H) 25.7%; (Polymerization Time 1 H) 59.0%; (Polymerization Time 1.5 H) 67.0%; (Polymerization Time 2 H) 72.7%; (Polymerization Time 3 H) 78.3%; (Polymerization Time 4 H) 85.8%. Moreover, the “Rate of Polymerization (%)” value came to 89.3% (Polymerization Time 5 H) and 87.8% (Polymerization Time 6 H).

`CC(C)(N=NC(C)(C)C(=N)N)C(=N)N.Cl` [Comparative Compound 1, 2,2′-azobis(2-methylpropionamidine) hydrochloride]: the “Rate of Polymerization (%)” value is recorded as 59.9% (Polymerization Time 0.5 H); 70.7% (Polymerization Time 1 H); 76.5% (Polymerization Time 1.5 H); 76.8% (Polymerization Time 2 H); 76.3% (Polymerization Time 3 H); 75.8% (Polymerization Time 4 H). Moreover, the “Rate of Polymerization (%)” value reads like this: (Polymerization Time 5 H) 76.5%; (Polymerization Time 6 H) 76.2%.

As for `CC(C)(N=NC(C)(C)C(=O)NCCO)C(=O)NCCO` [Comparative Compound 2, 2,2′-azobis[N-(2-hydroxyethyl)-2-methylpropionamide]], the “Rate of Polymerization (%)” value stood at 11.5% (Polymerization Time 0.5 H); 18.5% (Polymerization Time 1 H); 24.5% (Polymerization Time 1.5 H); 30.5% (Polymerization Time 2 H); 41.4% (Polymerization Time 3 H); 54.0% (Polymerization Time 4 H). For the same compound, the “Rate of Polymerization (%)” value came to 63.5% (Polymerization Time 5 H) and 71.0% (Polymerization Time 6 H).
